# Results taken from the supplement of paper PMC4749390.
# Counter-ions that a name gives are not always drawn. The list shows a part of the results. This data set is noisy: repeats of one test often differ as much as different tests do.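 JEG3 cells stably express tetracycline-inducible wild-type human LRH-1, a highly sumoylated nuclear receptor. SUMO-sensitive transcripts APOC3 and MUC1, increased by SUMO-deficient LRH-1 or UBC9 knockdown, were quantified by RT-qPCR relative to TBP and DMSO controls. Primary hits had robust Z-scores above +2 or below -2, before toxicity and TBP filtering.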
# System: JEG3 expressing hLRH-1
# Experiment: MUC1 transcript change (ddCt vs TBP and DMSO), Z-score over library; higher = higher MUC1 expression
# Settings: 10 µM; time (hr): 24
row,SMILES,MUC1 transcript change (Z-score)
1,Nc1ccn([C@@H]2O[C@H](CO)[C@@H](O)[C@@H]2O)c(=O)n1 [cytarabine],1.7
2,CN(C)CCCN1c2ccccc2CCc2ccccc21 [Imipramine hydrochloride],-0.793
3,CCCCCCCC/C=C\CCCCCCCC(=O)O [ethanolamine oleate],0.675
4,CC(c1cc2ccccc2s1)N(O)C(N)=O (stereo unspecified) [zileuton],0.653
5,O=C1CCc2cc(OCCCCc3nnnn3C3CCCCC3)ccc2N1 [cilostazol],0.00909
6,CC(=O)OCC(=O)[C@@]1(O)[C@@H](C)CC2C3CCC4=CC(=O)C=C[C@]4(C)[C@@]3(F)[C@@H](O)C[C@@]21C (stereo partly specified) [betamethasone acetate],0.0447
7,CCN(CC)CCCC(C)Nc1c2ccc(Cl)cc2nc2ccc(OC)cc12 (stereo unspecified) [Quinacrine dihydrochloride],3.28
8,CCN(CCO)CCCC(C)Nc1ccnc2cc(Cl)ccc12 (stereo unspecified) [hydroxychloroquine sulfate],0.718
9,C[C@]12CCC3c4ccc(O)cc4CCC3C1C[C@@H](O)[C@@H]2O (stereo partly specified) [estriol],0.189
10,NS(=O)(=O)c1cc2c(cc1C(F)(F)F)NC(Cc1ccccc1)NS2(=O)=O (stereo unspecified) [bendrofumethiazide],1.83
11,O=c1[nH]c(=O)c2ccccc2o1 [carsalam],0.258
12,CN1C(=O)CC(c2ccccc2)C1=O (stereo unspecified) [phensuccimide],0.566
13,CCCCC/N=C(\N)N/N=C/c1c[nH]c2ccc(OC)cc12 [tegaserod maleate],-0.141
14,CC(C)(C(=O)c1cccnc1)c1cccnc1 [metyrapone],-0.456
15,NCCCC(N)CC(=O)NCC1NC(=O)C(CO)NC(=O)C(N)CNC(=O)C(C2CCN=C(N)N2)NC(=O)/C(=C\NC(N)=O)NC1=O (stereo unspecified) [capreomycin sulfate],0.0914
16,COc1ccc(C(=O)NCc2ccc(OCCN(C)C)cc2)cc1OC [itopride  hydrochloride],0.189
17,CC(CCc1ccccc1)NCC(O)c1ccc(O)c(C(N)=O)c1 (stereo unspecified) [labetalol hydrochloride],0.927
18,CC(=O)Nc1nnc(S(N)(=O)=O)s1 [Acetazolamide],-0.517
19,C/C=C/c1ccc(OC)cc1 [anethole],0.292
20,CO/N=C1\C[C@]2(C[C@@H]3C[C@@H](C/C=C(\C)C[C@@H](C)/C=C/C=C4\CO[C@@H]5[C@H](O)C(C)=C[C@@H](C(=O)O3)[C@]45O)O2)O[C@H](/C(C)=C/C(C)C)[C@H]1C [moxidectin],-0.0382
21,CCOC(=O)NNc1nncc2ccccc12 [todralazine hydrochloride],-0.054

row,SMILES,MUC1 transcript change (Z-score)
1,CCCC(=O)Nc1ccc(OCC(O)CNC(C)C)c(C(C)=O)c1 (stereo unspecified) [acebutolol hydrochloride],-1.2
2,CC(C)(C)NCC(O)c1cc(O)cc(O)c1 (stereo unspecified) [terbutaline hemisulfate],0.575
3,CC(=O)[C@H]1CCC2C3CCC4=CC(=O)CC[C@]4(C)C3CC[C@@]21C (stereo partly specified) [progesterone],0.0655
4,CC[N+](CC)(CC)CCOc1cccc(OCC[N+](CC)(CC)CC)c1OCC[N+](CC)(CC)CC [Gallamine triethiodide],-0.197
5,CC(Oc1c(Cl)cccc1Cl)C1=NCCN1 (stereo unspecified) [lofexidine  hydrochloride],-0.191
6,C#CCN(C)CCCOc1ccc(Cl)cc1Cl [Clorgyline hydrochloride],-0.65
7,OCc1ccccn1 [piconol],0.587
8,CN1CCC(=C2c3ccccc3C=Cc3ccccc32)CC1 [Cyproheptadine hydrochloride],-0.0453
9,CCOC(=O)OC(C)OC1=C(C(=O)Nc2ccccn2)N(C)S(=O)(=O)c2ccccc21 (stereo unspecified) [ampiroxicam],0.00181
10,COc1ccc(C(=O)c2ccccc2O)c(O)c1 [dioxybenzone],-0.873
11,CC[C@H]1OC(=O)[C@H](C)[C@@H](O[C@H]2C[C@@](C)(OC)[C@@H](O)[C@H](C)O2)[C@H](C)[C@@H](O[C@@H]2O[C@H](C)C[C@H](N(C)C)[C@H]2O)[C@](C)(OC)C[C@@H](C)C(=O)[C@H](C)[C@@H](O)[C@]1(C)O [clarithromycin],0.673
12,C=NC(C(=O)NC1C(=O)N2C1SC(C)(C)C2C(=O)O)c1ccccc1 (stereo unspecified) [metampicillin sodium],-0.555
13,COc1cc(CNC(=O)CCCC/C=C/C(C)C)ccc1O [e-capsaicin],-0.523
14,COCCc1ccc(OCC(O)CNC(C)C)cc1 (stereo unspecified) [metoprolol tartrate],0.0235
15,CC1CCCC(C)N1 (stereo unspecified) [nanofin],0.387
16,CC(=O)Nc1cccc(O)c1 [metacetamol],0.595
17,CC(=O)OCC(CCn1cnc2cnc(N)nc21)COC(C)=O [famciclovir],0.223
18,O=C(O)c1cc(N=Nc2ccc(O)c(C(=O)O)c2)ccc1O [olsalazine sodium],0.775
19,CCCCCOC(=O)Nc1nc(=O)n([C@@H]2O[C@H](C)[C@@H](O)[C@H]2O)cc1F [capecitabine],-0.321
20,CC12CCC3c4ccc(O)cc4CCC3C1C[C@H](O)[C@@H]2O (stereo partly specified) [epiestriol],0.446

# Structural class, those above containing an NH in an aromatic ring (2)
row,SMILES,MUC1 transcript change (Z-score)
11,O=c1[nH]c(=O)c2ccccc2o1 [carsalam],0.258
13,CCCCC/N=C(\N)N/N=C/c1c[nH]c2ccc(OC)cc12 [tegaserod maleate],-0.141
